Patent US20160333113A1 (NATIONAL CANCER CENTER, published 2016)
No constants are given. Whether binding was seen depends on the method and setting. Some binding calls cover weakened binding; strength is not graded here.

Chains of the proteins cited; added tags and fusions are not shown. Lines headed by an entry give the natural chain unless they say otherwise; changes in a name come on top.
UniProt P13726: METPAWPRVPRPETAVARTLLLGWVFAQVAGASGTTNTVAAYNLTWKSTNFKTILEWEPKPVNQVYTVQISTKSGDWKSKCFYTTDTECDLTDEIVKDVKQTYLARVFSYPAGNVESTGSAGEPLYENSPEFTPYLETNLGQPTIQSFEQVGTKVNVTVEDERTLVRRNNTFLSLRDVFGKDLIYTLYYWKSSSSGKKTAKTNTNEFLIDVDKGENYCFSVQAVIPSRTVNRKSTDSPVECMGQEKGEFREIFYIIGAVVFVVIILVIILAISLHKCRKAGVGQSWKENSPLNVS

Biological target: human tissue factor (hTF), purified, construct not stated (human) (UniProt P13726)
Experiment: ELISA with culture supernatant

binding: binds
B1: anti-hTF human chimeric antibody (No. 1849) (antibody, human IgG1, kappa, V domains shown)
VH: EVQLVESGGGLVQSGRSLKLSCAASGFTFSDYNMAWIRQAPKKGLEWVAAIIYDGTRTYYRDSVRGRFTISRDNAKSTLYLQVDSLRSEDTATYYCATGDSYTNFAYWGQGTLVTVSS
VL: EIVLTQSPTTMAASPGEKVTLTCRASSSLSYMHWYQQRSGTSPKLWIYETSKLASGVPNRFSGSGSGTSFSLTIDSMETEDAATYYCQQGNSYPRTFGGGTKLELKR
